Measured values reported in PubChem BioAssay AID1671190 (National Center for Advancing Translational Sciences (NCATS), 2021).
In all, about 580,000 compounds went through this assay and about 6,100 (1.1%) were called active. Inconclusive means that the source gave no clear call. Such entries were picked first, then a sample of the others. The call rests on the fitted dose curve; in most records, active means well fitted inhibition curve with a large enough effect; inconclusive means small, poorly fitted or top-dose-only effect, or another doubt; inactive means no such curve, though single readings can be large or run the other way. Potencies of inconclusive entries are doubtful fits and often do not repeat.

Protein sequences, listed by entry. Tags and fused reporters are not part of them. Lines headed by an entry give the natural chain unless they say otherwise; changes in a name come on top.
UniProt P18054: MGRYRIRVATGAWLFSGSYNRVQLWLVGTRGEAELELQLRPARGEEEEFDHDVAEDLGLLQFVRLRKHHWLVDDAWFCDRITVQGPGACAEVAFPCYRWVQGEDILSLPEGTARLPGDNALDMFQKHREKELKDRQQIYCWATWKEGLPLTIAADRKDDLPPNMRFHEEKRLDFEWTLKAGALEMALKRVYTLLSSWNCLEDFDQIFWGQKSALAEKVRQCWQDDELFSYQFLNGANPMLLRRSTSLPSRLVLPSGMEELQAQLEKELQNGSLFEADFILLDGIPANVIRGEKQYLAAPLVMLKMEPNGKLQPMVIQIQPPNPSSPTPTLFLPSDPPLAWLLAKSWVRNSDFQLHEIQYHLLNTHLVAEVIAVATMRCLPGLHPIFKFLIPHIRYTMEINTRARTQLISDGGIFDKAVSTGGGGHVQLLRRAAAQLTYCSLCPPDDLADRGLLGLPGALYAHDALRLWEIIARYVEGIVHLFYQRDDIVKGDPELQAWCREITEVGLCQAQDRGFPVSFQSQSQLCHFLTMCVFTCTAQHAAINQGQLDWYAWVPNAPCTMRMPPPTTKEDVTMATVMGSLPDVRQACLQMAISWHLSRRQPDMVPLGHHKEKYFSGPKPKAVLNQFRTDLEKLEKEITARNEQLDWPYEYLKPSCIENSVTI

target: Polyunsaturated fatty acid lipoxygenase ALOX12 (Homo sapiens) (UniProt P18054); experiment: Primary qHTS assay for inhibitors of human arachidonate 12S-lipoxygenase (ALOX12): Round 2; settings: purified 12hLO, xylenol orange hydroperoxide absorbance; series mostly up to 108 µM
How it was run: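 Purified human 12hLO at 150 nM in 25 mM Hepes, 0.01% Triton X-100, pH 7.0, preincubated 15 min at room temperature with compound. Reaction started with 40 uM arachidonic acid, 30 min at room temperature. Hydroperoxide measured by Fe-xylenol orange, 573/405 nm absorbance ratio.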
Potency means the concentration at half of the fitted maximal effect.

Compound | Potency
CCn1c(C(=O)OC)cc2c1ccn2-c1ccc(F)cc1 | inactive
CSc1cccc(NC(=O)/C=C/c2cccc(F)c2)c1 | inactive
Cc1cc(Nc2ccc(Br)cc2F)n2nc(C)nc2n1 | inconclusive: 14.1 µM [inhibitor, full curve, poor fit]
CC(=O)C1=C(C)N(Cc2ccc(Cl)cc2)C(=S)NC1c1ccc(Cl)cc1 (configuration not stated) | active: 44.7 µM
CCN(CC)S(=O)(=O)c1cc(C)c(C)cc1Br | inconclusive: 0.794 µM [inhibitor, partial curve, poor fit]
O=C(/C=C/[C@H]1O[C@@H](n2ccc(=O)[nH]c2=O)[C@H](O)[C@@H]1O)NCc1cccc2ccccc12 | inconclusive: 89.1 µM [inhibitor, partial curve, poor fit]
CCc1ccccc1NC(=O)c1nc2ccccc2nc1N1CCCC1 | inactive
COc1cc(O)c(C(CCN2CCOCC2)c2ccc(N(C)C)cc2)c(OC)c1 (configuration not stated) | inactive
CCOc1ccc(N/C=C/C(=O)c2ccccc2)c([N+](=O)[O-])c1 | inactive
O=C1C(=O)N(Cc2ccc(Cl)c(Cl)c2)c2ccccc21 | inconclusive: 28.2 µM [inhibitor, partial curve, poor fit]
CCN(CC)C(=O)c1ccc(/C=C/c2c[nH]c3ccccc23)[n+](C)c1 | inconclusive: 50.1 µM [inhibitor, partial curve, poor fit]
COc1ccc(CCNC(=O)COc2ccc3c(c2)OCO3)cc1 | inconclusive: 126 µM [inhibitor, single point]
Cc1ccc(C(=O)CNc2cccc([N+](=O)[O-])c2)cc1 | inconclusive: 25.1 µM [inhibitor, single point]
O=C(O)C1=NOC2CN(Cc3ccc(Cl)cc3)CC12 (configuration not stated) | inconclusive: 10 µM [inhibitor, full curve, poor fit]
O=C1C(=O)N(C2CCN(C(=O)c3ccccc3F)CC2)CCN1Cc1ccc(F)cc1 | inactive
Cc1ccc(NC(=O)CSc2nnc(-c3n[nH]c4ccccc34)n2-c2ccccc2)c(C)c1 | inactive
OC(c1ccc2c(c1)OCO2)c1ncc(-c2ccccc2)[nH]1 (configuration not stated) | inconclusive: 79.4 µM [inhibitor, single point]
O=S(Cc1ccc(Cl)cc1)Cc1cccc2ccccc12 (configuration not stated) | inconclusive: 141 µM [inhibitor, single point]
Cc1ccc(NC(=O)N[C@@H]2C=C(C(=O)NCC(N)=O)C[C@@H](O)[C@@H]2O)cc1 | inconclusive: 112 µM [inhibitor, single point]
COc1cc(/C=N/n2c(C3CCCCC3)n[nH]c2=S)ccc1O | inconclusive: 100 µM [inhibitor, partial curve, poor fit]
Oc1ccc(Nc2nccc3[nH]c(-c4ccccc4)cc23)cc1 | inconclusive: 79.4 µM [inhibitor, partial curve, poor fit]
O=C(/C=C/c1ccc(Cl)cc1Cl)c1ccc(OC(F)F)cc1 | inconclusive: 25.1 µM [inhibitor, partial curve, poor fit]
c1ccc2c(c1)OCC(CNCC1COc3ccccc3O1)O2 (configuration not stated) | inactive

Random excerpt: 2 entries already listed, in no set order.
Compound | Potency
Oc1ccc(Nc2nccc3[nH]c(-c4ccccc4)cc23)cc1 | inconclusive: 79.4 µM [inhibitor, partial curve, poor fit]
O=S(Cc1ccc(Cl)cc1)Cc1cccc2ccccc12 (configuration not stated) | inconclusive: 141 µM [inhibitor, single point]

Next entries:

Compound | Potency
CCCc1nc2c(C)cc(Br)cn2c1Cc1ccccc1C(F)(F)F | inconclusive: 44.7 µM [inhibitor, partial curve, poor fit]
COCC(=O)Nc1nc2c(s1)C[C@@H]1[C@](C)(CO)[C@H](O)CC[C@@]1(C)[C@@H]2CC(=O)NCc1ccccc1 | inactive
O=C(NCc1ccccc1)C(Nc1ccccc1)c1ccccc1F (configuration not stated) | inconclusive: 126 µM [inhibitor, single point]
CCOc1cccc2cc(-c3nc(-c4ccccc4F)no3)c(=O)oc12 | inactive
Cc1cc(C)c2c(c1)/C(=C/C(=O)c1ccc(Br)s1)C(=O)N2 | inconclusive: 44.7 µM [inhibitor, partial curve, poor fit]
Cc1cc(C)c(NC(=O)c2sc3nc4c(cc3c2N)C(=O)CC(C)(C)C4)c(C)c1 | inactive
Cc1ccsc1-c1[nH]nc2ncc(-c3ccc(F)cc3)nc12 | inconclusive: 28.2 µM [inhibitor, partial curve, poor fit]
Cc1ccc(S(=O)(=O)c2nc(-c3ccccc3Cl)oc2NCCCN2CCOCC2)cc1 | inconclusive: 3.55 µM [inhibitor, full curve, poor fit]
CC(C)(C)C(=O)/C(C#N)=C/c1ccccc1OCc1ccc(Cl)cc1 | inactive
Cc1cc(NCc2ccco2)nc2cc(O)ccc12 | inactive
Cc1noc(NC(=O)CSc2nccn2-c2ccccc2)n1 | inconclusive: 5.01 µM [inhibitor, full curve, poor fit]
O=C(Nc1ccc2nc(-c3cccs3)c(-c3cccs3)nc2c1)NC1CC1 | inconclusive: 100 µM [inhibitor, partial curve, poor fit]
Cc1ccc2oc(C(=O)N(Cc3sccc3C)C3CCS(=O)(=O)C3)c(C)c2c1 (configuration not stated) | inactive
COc1ccc2cc(-c3nc(-c4ccccc4Cl)no3)c(=O)oc2c1 | inconclusive: 1 µM [inhibitor, full curve, poor fit]
COc1ccccc1N1CCN(C(=O)CSc2ncnc3scc(-c4ccccc4)c23)CC1 | inactive
CC(=O)CC(=O)O[C@@H]1C=C[C@H](NC(=O)OC(C)(C)C)C1 | inconclusive: 28.2 µM [inhibitor, single point]
COc1ccc(C(=O)N/N=C/c2sc(=O)n(Cc3cccc(C(=O)O)c3)c2Cl)cc1 | inactive
CCOC(=O)C(=NCC1CCCO1)NNc1cc(Cl)ccc1Cl (configuration not stated) | inconclusive: 100 µM [inhibitor, single point]
O=C(CCC(=O)CCN1CCCCC1)CCN1CCCCC1 | inactive
CC(OC(=O)C1CC(=O)N(Cc2ccccc2)C1)C(=O)Nc1ccc(F)cc1Cl (configuration not stated) | inactive
CC(=O)Nc1cccc(Oc2ccc3nnc(-c4ccc(Cl)cc4)n3n2)c1 | inactive
CCCCC1Cc2[nH]c(=S)[nH]c(=O)c2C(c2ccc3ccccc3c2)O1 (configuration not stated) | inconclusive: 8.91 µM [inhibitor, full curve, poor fit]
Cc1nc2c(cnn2-c2ccccc2)c(=O)n1/N=C/c1ccccc1 | inconclusive: 141 µM [inhibitor, single point]

A run of entries from further up:
Compound | Potency
CCCCC1Cc2[nH]c(=S)[nH]c(=O)c2C(c2ccc3ccccc3c2)O1 (configuration not stated) | inconclusive: 8.91 µM [inhibitor, full curve, poor fit]
Cc1nc2c(cnn2-c2ccccc2)c(=O)n1/N=C/c1ccccc1 | inconclusive: 141 µM [inhibitor, single point]

Additional results

Compound | Potency
O=C(OCCN1CCOCC1)c1ccc(OCCN2CCOCC2)cc1 | inconclusive: 25.1 µM [inhibitor, partial curve, poor fit]
C#CCOCCOCCOCCNc1nc(N2CCN(C(=O)[C@H](CCCCN)n3cc([C@@H](N)[C@H](C)CC)nn3)CC2)nc(N2CCN(C(=O)[C@H](CCC(=O)O)n3cc([C@@H](N)CCSC)nn3)CC2)n1 | inconclusive: 39.8 µM [inhibitor, single point]
Cc1nc2c(c(-c3ccc(O)cc3)n1)CN(Cc1ccc(C(F)(F)F)cc1)CCC2 | inconclusive: 44.7 µM [inhibitor, partial curve]
COc1ccccc1C(=O)Nc1nnc2n1CCS2 | inconclusive: 2.51 µM [inhibitor, full curve, poor fit]
Cc1ccc(-n2c(SCC(=O)NCc3ccco3)nc3nc4c(cc3c2=O)COC(C)(C)C4)cc1 | inactive
S=C1NC2=C(CCCC2=C2SCCCS2)C(c2ccccc2)N1 (configuration not stated) | active: 14.1 µM
CC(C)n1cnnc1SCC(=O)N(C)CCOc1ccc(Br)cc1 | inactive
CC(NC(=O)c1ccc2c(c1)NC(=O)CS2)c1ccc(F)cc1F (configuration not stated) | inconclusive: 50.1 µM [inhibitor, partial curve, poor fit]
COc1cccc(CN2CCC3(CC2)c2[nH]c4ccccc4c2CCN3C)c1 | inactive
CCC(=O)N1CCN(c2nc3c(s2)CC(C(=O)Nc2ccc(F)cc2F)CC3)CC1 (configuration not stated) | inconclusive: 25.1 µM [inhibitor, full curve]
Cc1ccccc1C(=O)Nc1ccc(Cl)c(C(F)(F)F)c1 | inactive
O=C(Nc1nnc(Cc2ccccc2)s1)C1CC(=O)N(c2n[nH]c3ccccc23)C1 (configuration not stated) | inconclusive: 15.8 µM [inhibitor, full curve]
COC(=O)C1=C(C)N(Cc2cccc(C(F)(F)F)c2)C(=NCc2ccc3c(c2)OCO3)NC1c1cccc(C(F)(F)F)c1 (configuration not stated) | inconclusive: 79.4 µM [inhibitor, partial curve, poor fit]
Cc1c(Cl)cccc1NC(=O)CSc1nc(=O)n(Cc2ccco2)c2c1CCC2 | inconclusive: 56.2 µM [inhibitor, partial curve, poor fit]
Cc1ccc(-c2cn3c(n2)CO[C@@H](CNC(=O)c2cccnc2)C3)cc1 | inconclusive: 35.5 µM [inhibitor, full curve]
Cc1cc(C(=O)Cn2cnc3c2c(=O)n(C)c(=O)n3C)c(C)n1C | inconclusive: 3.98 µM [inhibitor, full curve, poor fit]
CC(C)(C)OC(=O)CC[C@@H](C(=O)N1CCN(C(=O)OC(C)(C)C)CC1)n1cc(C(CO)NC(=O)OC(C)(C)C)nn1 (some centres not stated) | inactive
Cc1cc(NC(=O)CN2C(=O)NC(c3ccc(Cl)cc3)C3=C2COC3=O)ccc1Br (configuration not stated) | active: 8.91 µM
COc1ccccc1/C=C/CN1CCN(c2ccccc2)CC1 | inconclusive: 1.12 µM [inhibitor, full curve, poor fit]
CCOCCCNC(=O)c1cc(-c2ccccc2)nc2ccccc12 | inconclusive: 100 µM [inhibitor, partial curve, poor fit]
CC1CCN(S(=O)(=O)c2ccc3c(c2)N(CC(=O)NCC(C)c2ccccc2)C(=O)CO3)CC1 (configuration not stated) | inconclusive: 17.8 µM [inhibitor, partial curve, poor fit]
